Measurements as given in PubChem BioAssay AID743266 (National Center for Advancing Translational Sciences (NCATS), 2014).
Out of some 410,000 compounds screened, about 310 (0.076%) were called active. The inconclusive results got no clear call from the source; some entries with a clear call stand among them for comparison. Calls come from the whole dose curve; as a rule, active = well fitted activation curve with a large enough effect; inconclusive = small, poorly fitted or top-dose-only effect, or another doubt; inactive = no such curve, though single readings can be large or run the other way. Where the call is inconclusive, the potency comes from a doubtful curve fit.

By UniProt entry, the sequences of proteins in these tests, tags left out.
UniProt Q03431, whole entry, looked up: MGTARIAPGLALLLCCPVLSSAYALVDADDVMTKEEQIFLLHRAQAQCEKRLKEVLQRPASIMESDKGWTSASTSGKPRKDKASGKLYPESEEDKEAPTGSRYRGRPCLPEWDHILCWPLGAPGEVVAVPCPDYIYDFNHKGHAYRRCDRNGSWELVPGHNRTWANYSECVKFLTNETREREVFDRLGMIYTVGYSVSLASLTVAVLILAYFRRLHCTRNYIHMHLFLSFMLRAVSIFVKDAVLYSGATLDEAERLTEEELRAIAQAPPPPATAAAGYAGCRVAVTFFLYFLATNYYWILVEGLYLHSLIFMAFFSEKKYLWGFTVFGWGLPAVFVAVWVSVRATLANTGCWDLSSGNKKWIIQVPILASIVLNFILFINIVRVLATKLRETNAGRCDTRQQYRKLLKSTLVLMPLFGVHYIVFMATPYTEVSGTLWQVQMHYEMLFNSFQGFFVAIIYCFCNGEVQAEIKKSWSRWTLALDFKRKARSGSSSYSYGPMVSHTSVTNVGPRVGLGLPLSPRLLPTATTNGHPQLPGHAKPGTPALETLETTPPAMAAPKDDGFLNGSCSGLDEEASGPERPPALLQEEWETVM

These molecules were tested against Parathyroid hormone/parathyroid hormone-related peptide receptor (Homo sapiens) (UniProt Q03431) (assay: qHTS for PTHR1 Agonists: Primary Screen). Conditions: HEK293 GP2 PTHR1 cells, GloSensor cAMP luminescence, 1 h; activation: at 115 µM (top of the series) unless noted; series mostly up to 115 µM.
Outline: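 HEK-293-derived GP2 cells expressing PTHR1 and a GloSensor cAMP reporter, 3,000/well, plated overnight, given luciferin plus IBMX (each 0.5 mM as added) for 1 h at 37 °C, then compound for 1 h at 37 °C. Luminescence was read after 15 min at room temperature.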
Note: nearly all actives have a fitted effect of over 55% in size.
Potency is the fitted concentration of half-maximal effect.

For `N#Cc1cccc(C(=O)Nc2ccc(S(=O)(=O)Nc3nccs3)cc2)c1`, which Potency is on record?
Its Potency is inconclusive: 112 µM [activator, single point].

Which Potency does the source give for `COc1ccc(O)c(CN2CCC(n3nccc3NC(=O)CCOc3ccccc3)CC2)c1` here?
Its Potency is inconclusive: 35.5 µM [activator, partial curve, poor fit].

With `CCOc1ccc(NC(=O)CN2CCN(CC(=O)Nc3cccc(F)c3)CC2)cc1` as the molecule, how does the Potency read?
The Potency was inconclusive: 44.7 µM [activator, single point].

With `COCCOC(=O)c1[nH]c2c(c1C)C(=O)C(C(=O)OC)C(C)C2` (configuration not stated) as the molecule, how does the “outcome” value read?
Its value is “inactive”.

`CC1CCCN(C(=O)Cn2c(=O)n(CC3CCC(C(=O)NC(C)C)CC3)c(=O)c3sccc32)C1` (configuration not stated) was tested. Which Potency did it give?
The Potency was inconclusive: 158 µM [activator, single point].

With `Cn1c(-n2cccc2)c(-c2c(-c3ccc(F)cc3)[nH]c3c2c(=O)[nH]c(=O)n3C)c(=O)[nH]c1=O` as the molecule, how does the Potency read?
Its Potency is inconclusive: 141 µM [activator, single point].

Which activation does the source give for `Cc1ccc(C2C(/C=C3/SC(=S)NC3=O)=C(c3cccs3)Oc3ccccc32)cc1` (configuration not stated) here?
The activation was inconclusive: -54.7% [activator] [at 57.5 µM].

How did the Potency turn out when `N#CCc1nn(-c2ccccc2)c2ncnc(N)c12` was run?
The Potency was inconclusive: 141 µM [activator, single point].

`COc1cc(OC)c(N2CC34C=CC(O3)C(C(=O)O)C4C2=O)cc1Cl` (configuration not stated) was tested. Which Potency did it give?
The Potency was inconclusive: 2.82 µM [activator, partial curve, poor fit].

Which Potency does the source give for `CCNC(=S)N1CCN(C(=O)c2ccco2)CC1` here?
Its Potency is inconclusive: 50.1 µM [activator, single point].

How did the activation turn out when `COc1cccc(OC)c1Cn1nnc2c(=O)[nH]c(C3CCN(C(=O)c4ccccc4)CC3)nc21` was run?
The activation was inconclusive: 63% [activator].

How did the “activation” value turn out when `O=C1c2ccccc2C(=O)N1/N=C/c1ccc(O)c(O)c1` was run?
The value was inactive: -6.93%.

How did the Potency turn out when `COc1ccc(C(=O)c2cnc[nH]2)cc1OC` was run?
The Potency was inconclusive: 112 µM [activator, partial curve, poor fit].

Which “activation” value does the source give for `Cc1ccc(C)c(NC(=O)Cn2c(=O)n(Cc3cccs3)c(=O)c3cccnc32)c1` here?
Its value is inactive: 14.7%.

For `COc1cccc(Nc2nc(-c3sc(NC(=O)c4ccco4)nc3C)cs2)c1`, which Potency is on record?
The Potency was inconclusive: 100 µM [activator, single point].

Which activation does the source give for `Fc1ccc(CNc2cc(-c3ccccc3)nc3nncn23)cc1` here?
Its activation is inconclusive: -63.7% [activator].

How did the “activation” value turn out when `COc1ccc(C[C@H]2CN3C(=NC[C@H]3Cc3ccccc3)N2CCNC(=O)c2ccc(C)c(Br)c2)cc1` was run?
Its value is inactive: -10.4%.

With `Cc1ccc(C(=O)NCCCNCCCNC(=O)c2ccc(C)nc2)cn1` as the molecule, how does the Potency read?
Its Potency is inconclusive: 28.2 µM [activator, partial curve, poor fit].

With `OC(CNCC#Cc1ccccc1)c1ccccc1` (configuration not stated) as the molecule, how does the Potency read?
Its Potency is inconclusive: 50.1 µM [activator, partial curve, poor fit].

Which Potency does the source give for `Cc1ccccc1Oc1nc2c(c(=O)n(C)c(=O)n2C)n1Cc1ccc(Br)cc1` here?
Its Potency is inconclusive: 126 µM [activator, single point].

For `CCCCc1ccc(Nc2ncnc3c2cnn3-c2ccc(C)cc2)cc1`, which Potency is on record?
Its Potency is inconclusive: 89.1 µM [activator, single point].

How did the Potency turn out when `O=S(=O)(NC1CCCCC1NCc1ccco1)c1ccc(Cl)cc1` (configuration not stated) was run?
The Potency was inconclusive: 35.5 µM [activator, single point].

For `CCOC(=O)C1=C(CNCCc2ccc(Cl)cc2)NC(=O)NC1c1ccc2c(c1)OCO2` (configuration not stated), which “activation” value is on record?
The value was inactive: -17.7%.

For `COc1ccccc1N1C(=O)CC(N2CCN(c3ccc(F)cc3)CC2)C1=O` (configuration not stated), which Potency is on record?
The Potency was inconclusive: 39.8 µM [activator, partial curve, poor fit].

With `O=c1c(-c2c(O)cc(O)c3c(=O)cc(-c4ccc(O)cc4)oc23)c(-c2ccc(O)cc2)oc2cc(O)cc(O)c12` as the molecule, how does the Potency read?
The Potency was inconclusive: 31.6 µM [activator, single point].

How did the activation turn out when `Cc1cc(O)ccc1Nc1nc(-c2cccnc2)cs1` was run?
The activation was inconclusive: -41.4% [activator].

Which “activation” value does the source give for `O=C(C1CCN(Cc2cc(Cl)ccc2O)CC1)N1CCN(Cc2ccccc2)CC1` here?
Its value is inactive: -63.6%.

Which Potency does the source give for `COCC(O)CNc1ccccc1` (configuration not stated) here?
The Potency was inconclusive: 39.8 µM [activator, single point].

With `COc1cccc(NC(=O)CN(C)C(=O)c2cc(C3CC3)nn2-c2ccccc2)c1` as the molecule, how does the activation read?
The activation was inconclusive: -25.4% [activator].

How did the “activation” value turn out when `Cc1onc(-c2ccccc2Cl)c1C(=O)N1CCN(c2cccc(Cl)c2)CC1` was run?
The value was inactive: -27.7%.

For `CCOCCCN(C(=O)c1snc(C(N)=O)c1N)C(C(=O)NC(C)(C)C)c1ccc(Cl)cc1` (configuration not stated), which Potency is on record?
The Potency was inconclusive: 25.1 µM [activator, partial curve].

For `CCCCC(=O)Nc1c(-c2ccc(OC)c(OC)c2)c(=O)c2ccccc2n1C`, which Potency is on record?
Its Potency is inconclusive: 112 µM [activator, single point].

How did the Potency turn out when `S=c1[nH]nc(-c2ccc(Cl)cc2)n1CC1CCCO1` (configuration not stated) was run?
Its Potency is inconclusive: 141 µM [activator, partial curve, poor fit].

With `Cc1ccc(SCC(=O)n2nc(C)cc2C)cc1` as the molecule, how does the Potency read?
The Potency was inconclusive: 158 µM [activator, partial curve, poor fit].

With `CC(C)(C)CC(C)(C)SSc1n[nH]c(=S)s1` as the molecule, how does the “activation” value read?
The value was inactive: -19.9%.

How did the “activation” value turn out when `Cc1cccc(NC(=O)CN2CCN(C(=O)c3ccc(-c4nc5ccccc5s4)o3)CC2)c1C` was run?
The value was inactive: -94.4%.

How did the activation turn out when `CC(NC(=O)C(=O)N/N=C/c1ccc(Cl)cc1)c1ccccc1` (configuration not stated) was run?
The activation was inconclusive: 34.8% [activator].

`Cc1c(OCC(=O)C(C)(C)C)ccc2c(-c3ccccc3)cc(=O)oc12` was tested. Which “activation” value did it give?
The value was inactive: -54.1%.

For `Cn1c(SCC(=O)NC2CCS(=O)(=O)C2)nc2ccccc21` (configuration not stated), which Potency is on record?
Its Potency is inconclusive: 89.1 µM [activator, partial curve, poor fit].

`COc1ccccc1OCCNC(=O)c1cc(C2CC2)nc2c1cnn2C(C)C` was tested. Which “activation” value did it give?
Its value is inactive: -6.96%.

For `N=c1c(S(=O)(=O)c2ccccc2)cc2c(=O)n3ccccc3nc2n1C1CCCCC1`, which “activation” value is on record?
Its value is inactive: -23.7%.

With `Cc1cc2nc(/N=C(\N)NC(=O)N3c4ccccc4Sc4ccccc43)nc(C)c2cc1C` as the molecule, how does the Potency read?
The Potency was “inactive”.

Which Potency does the source give for `CCc1cccc(C)c1NC(=O)c1cn2c3c(ccc(Cl)c3c1=O)OC(C)C2` (configuration not stated) here?
The Potency was inconclusive: 50.1 µM [activator, partial curve, poor fit].

`Cc1nc(-c2cccc(F)c2)sc1CCNC(=O)C(=O)Nc1ccc2c(c1)OCO2` was tested. Which Potency did it give?
The Potency was inconclusive: 22.4 µM [activator, partial curve, poor fit].

Which “outcome” value does the source give for `CCOC(=O)c1ccc(NC(=O)c2c(NCc3cc(OC)c(OC)cc3OC)sc3c2CCCC3)cc1` here?
The value was “inactive”.

`Cc1c(C(=O)Nc2cc(S(=O)(=O)N3CCOCC3)ccc2N2CCN(C)CC2)oc2ccccc12` was tested. Which Potency did it give?
Its Potency is inconclusive: 50.1 µM [activator, partial curve, poor fit].

`COc1cc(NC(=O)Cn2cnc3sc(C)c(S(=O)(=O)N4CCN(C)CC4)c3c2=O)cc(OC)c1OC` was tested. Which Potency did it give?
Its Potency is inconclusive: 141 µM [activator, single point].

`CCOc1cccc(C(=O)NC(=S)Nc2ccc3c(c2)OCCO3)c1` was tested. Which “activation” value did it give?
Its value is inactive: -32.2%.

Which activation does the source give for `O=C(CCc1nc2sc3c(c2c(=O)[nH]1)CCCC3)Nc1cccc(Cl)c1` here?
The activation was inconclusive: 2.17% [activator].

Which activation does the source give for `CCOC(=O)C1CCN(c2c(NCc3ccc(C(=O)NCCC(C)C)cc3)c(=O)c2=O)CC1` here?
Its activation is inconclusive: 87.9% [activator].

With `CCOC(CNC(=O)c1ccc2c(c1)nc(C)n2-c1cccc(F)c1)OCC` as the molecule, how does the Potency read?
Its Potency is inconclusive: 11.2 µM [activator, partial curve].

`O=C(Nc1ccc2nc(SCC(=O)N3CCOCC3)sc2c1)c1ccc(Cl)cc1` was tested. Which “activation” value did it give?
Its value is inactive: -23.5%.

Which activation does the source give for `Cc1cccc(N2CCN(C(=O)c3nn(C)c4c3CS(=O)(=O)c3ccccc3-4)CC2C)c1` (configuration not stated) here?
The activation was inconclusive: -62% [activator].

For `COc1ccc(NC(=O)CSc2nnc3n2CCCCC3)cc1OC`, which Potency is on record?
Its Potency is inconclusive: 0.86 µM [activator, full curve, poor fit].

With `COc1cc(CNCCO)cc(Br)c1OCc1ccccc1` as the molecule, how does the Potency read?
Its Potency is inconclusive: 126 µM [activator, single point].

Which activation does the source give for `CN(C)c1ccc(CNC(=O)c2sc3ncccc3c2-n2cccc2)cc1` here?
Its activation is inconclusive: -42.9% [activator].

How did the “activation” value turn out when `COC(=O)c1sccc1NC(=O)NC1CCCCC1` was run?
Its value is inactive: -15%.

Which Potency does the source give for `Cc1cc(C)cc(NC(=O)CCN2C(=O)c3ccccc3Sc3ncccc32)c1` here?
The Potency was inconclusive: 28.2 µM [activator, single point].

For `Cc1ccc(-c2cc(C(F)(F)F)c(C#N)c(SCC(=O)Nc3ccccc3F)n2)cc1`, which Potency is on record?
The Potency was inconclusive: 7.08 µM [activator, full curve, poor fit].

`O=C(CSc1nc2ccccc2s1)N1c2ccccc2Sc2ccccc21` was tested. Which Potency did it give?
The Potency was inconclusive: 11.2 µM [activator, partial curve, poor fit].

For `Cc1ccc(NC(=O)CSc2nnc(COc3ccc(Cl)cc3)o2)c(C)c1`, which “activation” value is on record?
The value was inactive: -11.9%.

Which Potency does the source give for `COc1ccc(NC2=NCC(=O)N2Cc2cccs2)cc1` here?
Its Potency is inconclusive: 7.08 µM [activator, full curve, poor fit].

With `COc1ccc(S(=O)(=O)NNC(=O)c2cccs2)cc1` as the molecule, how does the “activation” value read?
Its value is inactive: -9.87%.

With `COc1ccc(CCCNC(=O)C2(C)Cc3c(-c4ccc5c(c4)OCO5)ccnc3O2)cc1` (configuration not stated) as the molecule, how does the “outcome” value read?
Its value is “inactive”.

`Cc1ccc(S(=O)(=O)N2CCCCC2)cc1NC(=O)CSc1ncccn1` was tested. Which Potency did it give?
The Potency was inconclusive: 39.8 µM [activator, partial curve, poor fit].

`COc1ccc(C(=O)NCC(c2ccco2)S(=O)(=O)c2cccs2)cc1` (configuration not stated) was tested. Which “activation” value did it give?
Its value is inactive: -20.6%.

How did the Potency turn out when `Cc1cc(C)c(C)c(S(=O)(=O)N2CCC(C(=O)NCCCN3CCCC3=O)CC2)c1C` was run?
The Potency was inconclusive: 2.51 µM [activator, partial curve, poor fit].
